Some results were stated once for a whole list of compounds, not compound by compound.
Target: T1, FSAP wild type (Homo sapiens, UniProt Q14520)
T1 construct: found for a plasma sample of a non-carrier (wild type); from tissue
Assay: Change in amidolytic activity of FSAP (S-2288) on addition of activity modulator during the reaction, wild-type sample
Assay type: biochemical
Details: WT sample versus heterozygous MR I sample; aprotinin 2.95 KIU/ml, MAb about 60 μg/ml; listed as aprotinin
Method: The microtiter plates used were the same as described in example 1. In each case 100 μl of a plasma sample to be determined were pipetted in a dilution of 1:15 in sample buffer (see example 1) into the wells. After incubation at +37° C. for one hour, unbound constituents were removed by washing three times as in example 1.
To determine the amidolytic activity of FSAP, at time t0 in each case 80 μl of the chromogenic substrate S-2288 (1.5 mmol/L; Chromogenix Instrumentation Laboratory S.p.A., Milano, Italy) in a 50:50 mixture of test buffer I and test buffer II (see example 1for test buffer I and 11) were put into the MTP wells and incubated at +37° C. in a photometer. After about 60 minutes, aprotinin was added in a final concentration of 2.95 KIU/ml or the respective monoclonal antibody (MAb) was added in a final concentration of about 60 μg/ml per reaction mixture. The change in absorption of the reaction mixtures was followed at a wavelength of 405 nm, and the maximum reaction rate vmax was determined (see example 1). […]
Three independent measurements were carried out on the sample of the non-carrier of the FSAP MR I variant (wild-type sample; WT). […] The averages (Av.) of vmax/vmax activity modulator (vmax/vmaxA) and the standard deviations relating to the population (SD) were calculated. […]

Chains of the proteins cited; added tags and fusions are not shown. Residues count along the entry.
UniProt Q14520, 24-560: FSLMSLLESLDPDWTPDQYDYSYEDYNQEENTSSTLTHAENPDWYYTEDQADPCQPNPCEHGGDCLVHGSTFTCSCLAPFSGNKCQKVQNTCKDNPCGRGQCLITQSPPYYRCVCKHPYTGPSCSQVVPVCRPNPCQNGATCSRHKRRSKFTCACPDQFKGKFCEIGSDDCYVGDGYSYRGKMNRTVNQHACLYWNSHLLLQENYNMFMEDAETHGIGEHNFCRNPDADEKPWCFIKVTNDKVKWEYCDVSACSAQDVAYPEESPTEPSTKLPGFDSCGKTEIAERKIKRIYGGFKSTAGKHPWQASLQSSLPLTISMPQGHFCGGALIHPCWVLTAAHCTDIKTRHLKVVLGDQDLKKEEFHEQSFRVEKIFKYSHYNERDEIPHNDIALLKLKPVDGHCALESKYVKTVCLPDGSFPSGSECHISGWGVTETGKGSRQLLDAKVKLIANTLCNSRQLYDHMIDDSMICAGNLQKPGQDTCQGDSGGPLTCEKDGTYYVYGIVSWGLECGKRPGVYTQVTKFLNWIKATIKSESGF

aprotinin
WT/MRI quotient of Av. vmax/vmax A: > 1
